# Measurements reported in PubChem BioAssay AID652272 (Drosophila RNAi Screening Center, 2013).
# Aim: 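Finding fly genes that regulate Hedgehog signal transduction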 (primary screen)
# Cells: Drosophila clone 8 (Cl8) cells
# Reagent: long dsRNA against Drosophila genes
# Measured: 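Firefly light from a Hedgehog-responsive ptc promoter reporter and Renilla reference light, both read on a plate reader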
# Scale: firefly Hh reporter signal: higher = more ptc reporter light; Renilla reference signal: higher = more Renilla control light
# Rule for the call: 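Called a hit if the two-replicate mean z-score lies below -2 or above +3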
# Calls: active = hit: reporter lowered or raised; inactive = not a hit
# The screen tested about 21,000 reagents; below is an unselected part of those with a known target gene and a result. Of all reagents, 503 (2.4%) were called active. 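Raw plate light values, not normalised; calls rest on replicate z-scores that were not deposited; hits include reporter decreases as well as increases.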 Reagents against one gene are numbered here. Names joined by + are all predicted targets of the reagent. No sequences are given here. Not given: the amount of reagent, the time to read-out.
Gene,reagent,"firefly Hh reporter signal, replicate 1","firefly Hh reporter signal, replicate 2","firefly Hh reporter signal, replicate 3","Renilla reference signal, replicate 1","Renilla reference signal, replicate 2",activity call
jet,1,64953,41830,,2886,1873,inactive
CG13138,1,1.49e5,60377,,3760,5819,inactive
Fer2LCH,1,59644,76832,,1574,2410,inactive
wat,1,1.65e5,1.44e5,,6596,3617,inactive
CG31106,1,4.87e5,63709,,25085,4979,inactive
B4,1,70176,83757,,3080,2928,inactive
B4,2,1.18e5,62630,,3206,5734,inactive
CG6980,1,1.31e5,72248,,5177,2995,inactive
CheA7a,1,91485,3.35e5,,2731,11692,inactive
Spn28Da,1,80563,49505,,1969,3872,inactive
CG6652,1,77831,58577,,3008,2201,inactive
CG6830,1,69639,1.24e5,,2848,3322,inactive
CG31087,1,4.87e5,84262,,28579,933,inactive
ppk16,1,78252,38290,,1804,3810,inactive
loco,1,6.78e5,1.51e5,,33876,4944,inactive
loco,2,79392,1.06e5,,3348,4050,inactive
Jon44E,1,62321,40033,,1388,3216,inactive
CG12680,1,70576,1.46e5,,2395,5281,inactive
gry,1,1.13e5,2.81e5,,4056,11808,inactive
gry,2,74000,76571,,3986,3018,inactive
CG18234,1,1.53e5,,,3308,4100,inactive
CG5554,1,69808,58697,,1640,4955,inactive
CG4627,1,80210,63349,,1963,4457,inactive
CG1271,1,96416,92256,,3968,3456,inactive
CG3902,1,89509,1.38e5,,2819,3680,inactive
CG14811,1,98864,2.43e5,,3024,10516,inactive
Jon66Cii,1,45499,51664,,5858,4176,inactive
Pms2,1,1.03e5,84343,,3652,3485,inactive
Edg91,1,67692,66251,,2487,1385,inactive
hry,1,74280,31297,,3248,1328,inactive
Spn42Da,1,96160,48594,,2112,4192,inactive
CG13192,1,60614,64736,,1811,4130,inactive
Amyrel,1,78700,64257,,3792,3056,inactive
Trf4-1,1,1.22e5,3.64e5,,4224,11149,inactive
CG34334,1,55168,1.83e5,,1773,7440,inactive
lncRNA:CR32027,1,2.86e5,,,6082,,inactive
CG12964,1,74784,38099,,1910,2720,inactive
Tango2,1,90653,72882,,1639,1042,inactive
RnrS,1,57592,77072,,3030,3220,inactive
prom,1,87128,41763,,1808,3398,inactive
red,1,68308,32508,,2646,1418,inactive
CG11583,1,98834,59720,,5818,3584,active
CG12672,1,99696,4.82e5,3.63e5,2835,4675,inactive
CG7849,1,91431,74829,,1586,6187,inactive
Liprin-beta,1,45489,12400,32714,1686,2416,inactive
CG10413,1,80433,81897,,3056,3202,inactive
CG34325,1,84341,2.56e5,,1985,10955,inactive
CG34325,2,91010,2.23e5,,2402,9648,inactive
Ets97D,1,90492,1.08e5,,3608,3099,inactive
CG17230,1,1.89e5,1.51e5,,7072,5435,inactive
Alg2,1,95577,80026,,3654,3248,inactive
CG12877,1,1.05e5,1.15e5,,2816,3786,inactive
CG6923,1,1.13e5,1.02e5,,6016,4240,inactive
CG12239,1,70533,1.00e5,,2192,2917,inactive
CG12107,1,1.08e5,79794,,3442,2582,inactive
UGP + PGRP-LF,1,26006,59408,72119,3994,5536,inactive
CG15332,1,64917,1.70e5,,2240,6421,inactive
CG14062,1,84422,91659,,3090,2352,inactive
Sec13,1,70690,59356,,3041,3299,inactive
CG8298,1,81286,46786,,1706,3921,inactive
CG43308,1,1.24e5,2.14e5,,3573,9357,inactive
IKKepsilon,1,67795,56482,,1724,5912,inactive
Mst87F,1,1.47e5,1.29e5,,4901,4315,inactive
CG31787,1,75416,1.48e5,,1072,6755,inactive
CG6362,1,72518,65699,,1320,4850,inactive
CG15514,1,1.26e5,66466,,3232,2380,inactive
CG31517,1,1971,2.22e5,,375,4304,inactive
CG12769,1,1.49e5,1.16e5,,5476,4539,inactive
mRpL47,1,50541,81065,,1299,2691,inactive
Ncc69,1,1.18e5,84251,,4521,3697,inactive
Ncc69,2,39824,63640,44947,6292,928,inactive
CG7518,1,93381,93722,,4240,4173,inactive
csul,1,68217,42615,,1078,2985,inactive
